# Measured values reported in paper PMC12693566.
# No constants are given. Whether binding was seen depends on the method and setting. Binding seen in cells or lysates may run through a third protein. Some binding calls cover weakened binding; strength is not graded here. Tags and fused reporters may be left off the sequences shown.
# T1: GFP-fused RIC-8 (C. elegans) (UniProt Q9GSX9)
# T1 sequence: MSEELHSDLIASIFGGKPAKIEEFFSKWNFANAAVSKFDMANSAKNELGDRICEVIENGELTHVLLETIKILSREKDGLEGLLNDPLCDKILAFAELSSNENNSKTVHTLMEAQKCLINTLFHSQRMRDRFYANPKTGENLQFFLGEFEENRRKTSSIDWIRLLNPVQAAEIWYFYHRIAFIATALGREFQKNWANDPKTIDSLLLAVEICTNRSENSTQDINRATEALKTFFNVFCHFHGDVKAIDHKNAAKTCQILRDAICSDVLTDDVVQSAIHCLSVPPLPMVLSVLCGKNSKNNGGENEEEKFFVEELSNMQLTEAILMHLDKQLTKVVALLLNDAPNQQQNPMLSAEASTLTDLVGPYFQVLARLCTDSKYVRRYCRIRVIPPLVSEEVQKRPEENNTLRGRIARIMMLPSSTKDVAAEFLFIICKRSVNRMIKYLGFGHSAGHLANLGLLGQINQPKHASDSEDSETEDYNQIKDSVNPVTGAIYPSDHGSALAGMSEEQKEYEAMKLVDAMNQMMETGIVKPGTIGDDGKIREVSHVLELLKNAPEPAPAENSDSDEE
# Target: T1, GFP-fused RIC-8 (C. elegans)
# Experiment: FRET or BRET; FRET-FLIM in vivo in AWC neurons of C. elegans; GFP lifetime of RIC-8::GFP alone or co-expressed with TagRFP-tagged ODR-3
row,binding,Binder
1,binds,"TagRFP-tagged ODR-3^WT (protein, UniProt Q18434 1-356) MGSCQSNENSEGNARNKEIEKQLNADKRAGSSIVKLLLLGAGECGKSTVLKQMQILHSNGFTEEEVNEKRAIVYNNTVSAMCTILRAMDGVLHLPLENGQKEAEKAIVMKVQENGEEGEALTEEVSKAIQSLWADPGVKKAFEMRSEYQLPDSAKYFLDNCQRISEPGYRPNDQDILYSRVATTGVVEVKFKIKELDFRVFDVGGQRSERRKWIHCFDNVESIIFITAISEYDQVLFEDETTNRMIESMQLFNSICNSTWFLSTAMILFMNKKDLFMEKIQRVNITTAFPDYEGGQNYEEAVSFIKQKFAELNLNPDKKTIYMHETCATDTNQVQLVISSVIDTIIQKNLQKAGMM"
2,binds,"TagRFP-tagged ODR-3^A328P (protein, UniProt Q18434 1-356) MGSCQSNENSEGNARNKEIEKQLNADKRAGSSIVKLLLLGAGECGKSTVLKQMQILHSNGFTEEEVNEKRAIVYNNTVSAMCTILRAMDGVLHLPLENGQKEAEKAIVMKVQENGEEGEALTEEVSKAIQSLWADPGVKKAFEMRSEYQLPDSAKYFLDNCQRISEPGYRPNDQDILYSRVATTGVVEVKFKIKELDFRVFDVGGQRSERRKWIHCFDNVESIIFITAISEYDQVLFEDETTNRMIESMQLFNSICNSTWFLSTAMILFMNKKDLFMEKIQRVNITTAFPDYEGGQNYEEAVSFIKQKFAELNLNPDKKTIYMHETCPTDTNQVQLVISSVIDTIIQKNLQKAGMM"
